In PubChem BioAssay AID540256 (National Center for Advancing Translational Sciences (NCATS), 2011):
In all, about 300,000 compounds went through this assay and about 3,700 (1.2%) were called active. Inconclusive means that the source gave no clear call. Such entries were picked first, then a sample of the others. The call rests on the fitted dose curve; tested in HEK293 cells. A potency beside an inconclusive call is a rough fit, not a confirmed value.

test: qHTS for Inhibitors of binding or entry into cells for Lassa Virus; conditions: Lassa virus pseudotype entry inhibition, cell reporter; series mostly up to 37.9 µM; further: nearly all actives have a fitted effect of over 50% in size
Potency means the concentration at half of the fitted maximal effect.

Compound | Potency
Cc1ccccc1Cn1nnc2c(=O)[nH]c(C3CCCN(C(=O)c4ccc(F)cc4)C3)nc21 (stereo unspecified) | inconclusive: 6.31 µM [inhibitor, single point]
CCOC(=O)c1sc(NC(=O)c2ccc(S(=O)(=O)N3CCCCCC3)cc2)nc1-c1ccccc1 | inconclusive: 15.8 µM [inhibitor, partial curve, poor fit]
Cc1ccc(/C(N)=N/OC(=O)c2cccc(F)c2)cc1 | inconclusive: 29.1 µM [inhibitor, single point]
COc1ccc(C2C(C(=O)N3CCOCC3)c3ccccc3C(=O)N2c2ccc(OC)cc2)cc1 (stereo unspecified) | inactive
Cc1ccc(-c2nc3cc(NC(=O)C(C)C)ccc3o2)cc1 | active: 11.2 µM
Nc1ccccc1NC(=O)c1ccccc1N | inactive
O=C(CN1C(=O)c2ccccc2S1(=O)=O)NCCC1=CCCCC1 | inconclusive: 12.6 µM [inhibitor, partial curve, poor fit]
Cc1ccc(-n2nc(CO)c(C(=O)NCc3cccs3)n2)cc1C | inconclusive: 0.501 µM [inhibitor, full curve, poor fit]
CCOC(=O)c1c(C)[nH]c(O)c1C=Nc1ccc(Cl)cc1 | inconclusive: 8.2 µM [inhibitor, partial curve]
CN(C)CCCN(Cc1cc2cc3c(cc2[nH]c1=O)OCO3)C(=S)Nc1cccc(Cl)c1 | inconclusive: 22.4 µM [inhibitor, partial curve, poor fit]
O=C(c1ccco1)N1CCN(C(=O)c2cc(-c3ccccc3)nc3ccccc23)CC1 | inconclusive: 20.6 µM [inhibitor, single point]
CC(=O)c1ccc(Oc2cc(C)nc(NCc3ccccc3)n2)cc1 | inconclusive: 14.1 µM [inhibitor, single point]
COC(=O)c1ccccc1NC(=O)c1nc(S(=O)(=O)Cc2cccc(C)c2)ncc1Cl | inactive
COC(=O)c1ccccc1NC(=O)c1ccc2nc(Cc3ccccc3)oc2c1 | inactive
COc1ccccc1/C=C(/CC(=O)NCc1ccc(F)cc1)c1nc2ccccc2s1 | inconclusive: 9.2 µM [inhibitor, partial curve, poor fit]
CCn1ncc(C(=O)Nc2cccc(Cl)c2)c1C | inconclusive: 20 µM [activator, single point]
CCOC(=O)c1cc(C#N)c(N2CCCC2)nc1-c1ccccc1 | inconclusive: 11.2 µM [inhibitor, partial curve, poor fit]
COc1ccccc1NC(=O)C12CC3CC(C1)CC(c1ccc(C)cc1)(C3)C2 | inconclusive: 7.3 µM [activator, single point]
COc1cc(CNC2CCCC2)cc(Cl)c1OCc1ccccc1F | inconclusive: 23.1 µM [inhibitor, single point]
Cc1cc(N2CCN(C)CC2)nc2ccc(NC(=S)N3CCC4(CC3)OCCO4)cc12 | inconclusive: 2.82 µM [inhibitor, partial curve, poor fit]
CCCCOc1ccccc1NC(=O)CC1Nc2ccccc2NC1=O (stereo unspecified) | inactive
COc1cc(NC(=O)Cn2ncc(Cl)c(Cl)c2=O)c(C)cc1[N+](=O)[O-] | inconclusive: 14.1 µM [inhibitor, partial curve, poor fit]

Compound | Potency
CCOC(=O)N1CCN(C(=O)Cn2ccc3ccccc3c2=O)CC1 | inconclusive: 29.1 µM [inhibitor, single point]
CCCCn1c(N)c(N(CC(C)C)C(=O)c2cccc(S(=O)(=O)N3CCN(C)CC3)c2)c(=O)[nH]c1=O | inactive
Cc1ccc(C23OC(=O)C(C)(C)C2OC(=O)C3(C)C)cc1 (stereo unspecified) | inconclusive: 1.41 µM [activator, partial curve, poor fit]
CCc1ccc(-c2nc3cc(NC(=O)c4cc5ccccc5cc4OC)ccc3o2)cc1 | inactive
CC1CCCCN1S(=O)(=O)c1ccc(C(=O)Nc2ccccc2-c2nc3ccccc3[nH]2)cc1 (stereo unspecified) | inactive
Cc1nc2sccn2c(=O)c1CCN1CCC(=C(c2ccc(F)cc2)c2ccc(F)cc2)CC1 | active: 11.6 µM
COc1ccc(-n2ncc(C(=O)N3CCN(c4ncccn4)CC3)c2C2CCN(C(=O)OC(C)(C)C)CC2)cc1 | inactive
COc1ccc2[nH]c(=O)c(CNc3cc(C)ccc3C)cc2c1 | inconclusive: 10 µM [inhibitor, partial curve, poor fit]
COC(=O)[C@@]1(Cc2ccc(OC)cc2)[C@H]2c3cc(C(=O)N(C)C)[nH]c3C[C@H]2CN1C(=O)c1ccccc1 | inactive
COc1ccc(CNC(=O)c2cc(-c3cccc(Cl)c3)on2)cc1 | inactive
O=C(CSc1ccccc1)Nc1ccc(Cl)c(S(=O)(=O)N2CCOCC2)c1 | inconclusive: 25.1 µM [inhibitor, single point]
CCCn1c(N)c(C(=O)CSc2nc(C3CC3)n(-c3ccccc3)n2)c(=O)[nH]c1=O | inactive
C/C(N)=C(/C#N)C(=O)COC(=O)c1cc(-c2ccc(Br)cc2)nc2ccccc12 | inconclusive: 22.4 µM [inhibitor, single point]
Cc1ccc(NC(=O)c2cn3c4c(ccc(Cl)c4c2=O)OC(C)C3)c(C)c1 (stereo unspecified) | inactive
COc1cc(OC)c(NC(=O)c2cc3ccccc3cc2O)cc1Cl | inconclusive: 11.2 µM [inhibitor, single point]
CC(/C=C/c1ccco1)=N/NC(=O)c1ccc(C)nc1 | inconclusive: 3.16 µM [activator, partial curve, poor fit]
COc1cc2c(cc1OC)C(c1ccc(N(C)C)cc1)CC(=O)N2 (stereo unspecified) | inconclusive: 35.5 µM [inhibitor, single point]
COc1cc2nc(SCc3c(C)noc3C)n(CCC3=CCCCC3)c(=O)c2cc1OC | inconclusive: 8.2 µM [inhibitor, partial curve, poor fit]
CCCCN1C(C(=O)Nc2ncccn2)=C(O)c2ccccc2S1(=O)=O | inconclusive: 0.562 µM [inhibitor, full curve, poor fit]
O=[N+]([O-])c1ccc(N2CCN(S(=O)(=O)c3ccccc3)CC2)cc1NCC1CCCO1 (stereo unspecified) | inactive
O=C(Nc1nccs1)C1Cc2ccccc2CN1S(=O)(=O)c1ccc(F)cc1 (stereo unspecified) | inconclusive: 6.51 µM [activator, single point]
COc1ccc(NCc2nc3ccccc3n2CCOc2ccccc2)cc1 | inconclusive: 31.6 µM [activator, partial curve, poor fit]

An excerpt from the list above:
Compound | Potency
CCCCn1c(N)c(N(CC(C)C)C(=O)c2cccc(S(=O)(=O)N3CCN(C)CC3)c2)c(=O)[nH]c1=O | inactive
Cc1ccc(C23OC(=O)C(C)(C)C2OC(=O)C3(C)C)cc1 (stereo unspecified) | inconclusive: 1.41 µM [activator, partial curve, poor fit]
CCc1ccc(-c2nc3cc(NC(=O)c4cc5ccccc5cc4OC)ccc3o2)cc1 | inactive
CC1CCCCN1S(=O)(=O)c1ccc(C(=O)Nc2ccccc2-c2nc3ccccc3[nH]2)cc1 (stereo unspecified) | inactive
Cc1nc2sccn2c(=O)c1CCN1CCC(=C(c2ccc(F)cc2)c2ccc(F)cc2)CC1 | active: 11.6 µM
COc1ccc(-n2ncc(C(=O)N3CCN(c4ncccn4)CC3)c2C2CCN(C(=O)OC(C)(C)C)CC2)cc1 | inactive
COc1ccc2[nH]c(=O)c(CNc3cc(C)ccc3C)cc2c1 | inconclusive: 10 µM [inhibitor, partial curve, poor fit]
COC(=O)[C@@]1(Cc2ccc(OC)cc2)[C@H]2c3cc(C(=O)N(C)C)[nH]c3C[C@H]2CN1C(=O)c1ccccc1 | inactive
COc1ccc(CNC(=O)c2cc(-c3cccc(Cl)c3)on2)cc1 | inactive
O=C(CSc1ccccc1)Nc1ccc(Cl)c(S(=O)(=O)N2CCOCC2)c1 | inconclusive: 25.1 µM [inhibitor, single point]
CCCn1c(N)c(C(=O)CSc2nc(C3CC3)n(-c3ccccc3)n2)c(=O)[nH]c1=O | inactive
C/C(N)=C(/C#N)C(=O)COC(=O)c1cc(-c2ccc(Br)cc2)nc2ccccc12 | inconclusive: 22.4 µM [inhibitor, single point]
Cc1ccc(NC(=O)c2cn3c4c(ccc(Cl)c4c2=O)OC(C)C3)c(C)c1 (stereo unspecified) | inactive
COc1cc(OC)c(NC(=O)c2cc3ccccc3cc2O)cc1Cl | inconclusive: 11.2 µM [inhibitor, single point]
CC(/C=C/c1ccco1)=N/NC(=O)c1ccc(C)nc1 | inconclusive: 3.16 µM [activator, partial curve, poor fit]
COc1cc2c(cc1OC)C(c1ccc(N(C)C)cc1)CC(=O)N2 (stereo unspecified) | inconclusive: 35.5 µM [inhibitor, single point]
COc1cc2nc(SCc3c(C)noc3C)n(CCC3=CCCCC3)c(=O)c2cc1OC | inconclusive: 8.2 µM [inhibitor, partial curve, poor fit]
CCCCN1C(C(=O)Nc2ncccn2)=C(O)c2ccccc2S1(=O)=O | inconclusive: 0.562 µM [inhibitor, full curve, poor fit]
O=[N+]([O-])c1ccc(N2CCN(S(=O)(=O)c3ccccc3)CC2)cc1NCC1CCCO1 (stereo unspecified) | inactive
O=C(Nc1nccs1)C1Cc2ccccc2CN1S(=O)(=O)c1ccc(F)cc1 (stereo unspecified) | inconclusive: 6.51 µM [activator, single point]

Continuation.

Compound | Potency
Cc1cc(C)c2c(CN(C)Cc3ccccc3)cc(=O)oc2c1 | active: 9.96 µM
C=C(CN(C)C)C(=O)c1cc(C)ccc1C | inconclusive: 15.8 µM [inhibitor, single point]
O=C(Nc1ccccc1N1CCN(C(=O)c2ccc(Cl)cc2)CC1)c1ccc2c(c1)OCO2 | inconclusive: 13 µM [inhibitor, partial curve]
O=C(Nc1ccc(F)c(Cl)c1)C1CC(=O)n2c(nc3ccccc32)N1 (stereo unspecified) | inconclusive: 35.5 µM [inhibitor, partial curve, poor fit]
Cn1cccc1CNCc1ccc(F)cc1 | inconclusive: 6.31 µM [inhibitor, single point]
CCOc1ccc(CCNC(=O)COC(=O)CNS(=O)(=O)c2ccc(C)cc2)cc1OCC | inactive
COc1cccc(C2C(C(=O)c3ccco3)=C(O)C(=O)N2CCCN2CCOCC2)c1OC (stereo unspecified) | inactive
CC(C)c1nc(SCC(=O)N2CC(=O)Nc3ccccc32)c2ccccc2n1 | inconclusive: 0.891 µM [inhibitor, full curve, poor fit]
CC(=O)Nc1ccc(OCc2cccc([N+](=O)[O-])c2)cc1 | inconclusive: 35.5 µM [inhibitor, single point]
COc1ccc(CC(=O)N2CCC(c3ccccc3)C2)cc1 (stereo unspecified) | inconclusive: 35.5 µM [inhibitor, single point]
CCOc1ccc(NC(=O)COC(=O)c2ccc3ncsc3c2)cc1OCC | inconclusive: 14.1 µM [activator, partial curve, poor fit]
CCOC(=O)c1c(NC(=O)CSc2n[nH]c(-c3ccco3)n2)sc(C)c1C | inconclusive: 18.3 µM [inhibitor, partial curve]
CCOC(=O)c1cnn(-c2ccc(NS(=O)(=O)c3ccc(Cl)cc3)cc2)c1C(F)(F)F | inconclusive: 12.6 µM [inhibitor, partial curve, poor fit]
COc1cccc(/C=C/C(=O)c2cccc([N+](=O)[O-])c2)c1 | inactive
CCc1ccc(CNC(=O)CN(c2ccc(C)cc2)S(=O)(=O)N(C)C)cc1 | inconclusive: 11.2 µM [inhibitor, partial curve, poor fit]
O=S(=O)(Nc1cccc2cccnc12)c1ccccc1 | inconclusive: 15.8 µM [inhibitor, single point]
NC(=O)CSCc1c(Cl)cccc1Cl | inactive
COc1ccc(-c2nc(C)c(CCNC(=O)C(=O)Nc3c(C)cccc3C)s2)cc1OC | inconclusive: 8.91 µM [inhibitor, partial curve, poor fit]
Nc1c(N=Nc2ccccc2F)c(=O)[nH]n1-c1ccccc1 | inconclusive: 0.316 µM [activator, partial curve, poor fit]
O=C(COc1ccc(S(=O)(=O)N2CCOCC2)cc1)N1CCN(Cc2ccc3c(c2)OCO3)CC1 | inactive
O=C(Nc1ccc2c(c1)CCCN2C(=O)c1cccs1)c1c(F)cccc1F | inconclusive: 2.24 µM [inhibitor, full curve, poor fit]
Cc1cccc(N(C)S(=O)(=O)c2ccc3c(c2)CCC(=O)N3)c1 | inconclusive: 29.1 µM [inhibitor, single point]
